In the supplement of paper PMC6411743:
± gives the standard deviation of the averaged measurements. This is a selection; strong and weak results do not stand in their true shares. Most values lie at the level of the controls, where differences are scatter.

By UniProt entry, the sequences of proteins in these tests, tags left out. Where a name states a change or a piece, a line headed by the entry shows the natural chain unless it says otherwise.
UniProt O75064: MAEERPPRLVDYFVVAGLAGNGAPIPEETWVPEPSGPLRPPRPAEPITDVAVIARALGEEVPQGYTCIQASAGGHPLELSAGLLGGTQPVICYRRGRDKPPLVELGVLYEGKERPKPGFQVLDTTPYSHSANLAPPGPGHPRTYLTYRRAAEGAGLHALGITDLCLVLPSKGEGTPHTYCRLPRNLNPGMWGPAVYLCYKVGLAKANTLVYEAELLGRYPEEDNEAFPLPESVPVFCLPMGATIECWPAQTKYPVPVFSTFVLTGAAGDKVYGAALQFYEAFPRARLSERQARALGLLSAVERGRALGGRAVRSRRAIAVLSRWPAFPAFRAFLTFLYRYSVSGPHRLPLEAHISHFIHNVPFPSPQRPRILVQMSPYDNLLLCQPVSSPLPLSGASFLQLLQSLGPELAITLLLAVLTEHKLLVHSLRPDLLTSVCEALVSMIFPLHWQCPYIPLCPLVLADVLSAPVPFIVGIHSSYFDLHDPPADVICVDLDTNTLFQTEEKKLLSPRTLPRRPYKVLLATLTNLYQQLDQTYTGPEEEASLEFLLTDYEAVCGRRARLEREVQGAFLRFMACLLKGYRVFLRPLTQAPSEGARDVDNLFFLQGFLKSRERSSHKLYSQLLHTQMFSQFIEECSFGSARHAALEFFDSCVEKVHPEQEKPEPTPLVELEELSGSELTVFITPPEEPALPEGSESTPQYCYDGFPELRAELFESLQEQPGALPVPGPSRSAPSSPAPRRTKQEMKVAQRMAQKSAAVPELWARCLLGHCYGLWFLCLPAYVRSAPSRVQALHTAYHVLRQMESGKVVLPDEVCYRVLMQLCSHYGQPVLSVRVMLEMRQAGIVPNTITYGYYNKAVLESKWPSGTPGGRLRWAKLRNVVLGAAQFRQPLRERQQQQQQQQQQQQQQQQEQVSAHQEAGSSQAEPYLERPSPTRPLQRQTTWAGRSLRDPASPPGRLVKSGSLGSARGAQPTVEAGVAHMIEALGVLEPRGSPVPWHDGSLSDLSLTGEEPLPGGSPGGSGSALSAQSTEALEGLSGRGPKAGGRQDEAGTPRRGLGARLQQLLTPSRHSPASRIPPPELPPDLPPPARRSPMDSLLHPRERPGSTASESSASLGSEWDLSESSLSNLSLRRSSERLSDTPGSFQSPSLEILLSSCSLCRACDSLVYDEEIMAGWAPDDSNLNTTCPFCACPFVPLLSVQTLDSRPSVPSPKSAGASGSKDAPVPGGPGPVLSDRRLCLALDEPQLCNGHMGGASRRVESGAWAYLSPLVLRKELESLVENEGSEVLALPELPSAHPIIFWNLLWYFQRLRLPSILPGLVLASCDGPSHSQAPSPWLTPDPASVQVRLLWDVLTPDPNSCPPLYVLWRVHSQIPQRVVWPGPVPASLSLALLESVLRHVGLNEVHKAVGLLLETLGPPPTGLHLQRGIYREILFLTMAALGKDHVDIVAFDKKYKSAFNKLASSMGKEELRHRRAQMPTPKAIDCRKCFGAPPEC
UniProt O95236: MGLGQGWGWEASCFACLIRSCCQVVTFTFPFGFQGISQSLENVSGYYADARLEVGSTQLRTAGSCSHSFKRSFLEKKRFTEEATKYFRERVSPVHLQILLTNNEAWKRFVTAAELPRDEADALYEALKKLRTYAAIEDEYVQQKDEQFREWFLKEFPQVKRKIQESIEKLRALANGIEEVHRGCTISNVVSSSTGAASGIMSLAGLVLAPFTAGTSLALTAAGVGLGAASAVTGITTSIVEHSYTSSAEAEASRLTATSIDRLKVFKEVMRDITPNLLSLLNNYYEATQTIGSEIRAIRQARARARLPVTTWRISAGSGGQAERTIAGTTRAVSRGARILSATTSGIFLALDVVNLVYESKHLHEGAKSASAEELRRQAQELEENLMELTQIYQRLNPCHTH
UniProt O75608: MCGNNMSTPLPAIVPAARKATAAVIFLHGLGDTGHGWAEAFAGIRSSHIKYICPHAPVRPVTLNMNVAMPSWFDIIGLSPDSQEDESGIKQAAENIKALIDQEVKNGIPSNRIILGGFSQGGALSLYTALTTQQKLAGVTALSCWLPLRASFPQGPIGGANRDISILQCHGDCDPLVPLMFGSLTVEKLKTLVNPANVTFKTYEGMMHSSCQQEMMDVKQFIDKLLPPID
UniProt O75843: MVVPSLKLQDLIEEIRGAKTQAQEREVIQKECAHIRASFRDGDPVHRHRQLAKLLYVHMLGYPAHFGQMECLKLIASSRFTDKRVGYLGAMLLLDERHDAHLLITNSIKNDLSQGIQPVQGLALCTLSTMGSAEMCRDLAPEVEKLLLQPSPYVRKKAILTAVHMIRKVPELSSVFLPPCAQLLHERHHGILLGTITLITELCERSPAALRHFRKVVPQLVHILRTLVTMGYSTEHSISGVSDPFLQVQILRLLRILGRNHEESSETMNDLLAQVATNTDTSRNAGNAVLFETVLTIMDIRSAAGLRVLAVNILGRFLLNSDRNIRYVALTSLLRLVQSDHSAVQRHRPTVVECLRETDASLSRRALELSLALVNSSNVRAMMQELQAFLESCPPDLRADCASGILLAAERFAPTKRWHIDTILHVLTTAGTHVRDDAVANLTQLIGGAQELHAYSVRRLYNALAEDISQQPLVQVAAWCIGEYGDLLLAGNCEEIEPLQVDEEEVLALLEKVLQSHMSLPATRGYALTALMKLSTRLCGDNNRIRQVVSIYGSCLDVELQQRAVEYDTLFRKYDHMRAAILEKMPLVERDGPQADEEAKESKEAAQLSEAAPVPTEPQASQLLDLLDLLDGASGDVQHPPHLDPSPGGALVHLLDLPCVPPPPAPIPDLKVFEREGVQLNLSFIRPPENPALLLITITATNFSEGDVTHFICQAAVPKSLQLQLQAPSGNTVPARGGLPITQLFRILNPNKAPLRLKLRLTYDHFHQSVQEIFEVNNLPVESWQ
UniProt O75828: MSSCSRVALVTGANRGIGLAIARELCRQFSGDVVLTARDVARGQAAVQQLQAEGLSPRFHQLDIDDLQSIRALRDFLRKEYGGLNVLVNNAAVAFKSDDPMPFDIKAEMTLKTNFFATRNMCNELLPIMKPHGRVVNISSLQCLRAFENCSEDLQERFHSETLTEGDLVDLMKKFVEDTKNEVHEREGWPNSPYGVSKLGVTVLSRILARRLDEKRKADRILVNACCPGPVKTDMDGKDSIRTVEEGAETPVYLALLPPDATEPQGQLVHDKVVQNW
UniProt O60942: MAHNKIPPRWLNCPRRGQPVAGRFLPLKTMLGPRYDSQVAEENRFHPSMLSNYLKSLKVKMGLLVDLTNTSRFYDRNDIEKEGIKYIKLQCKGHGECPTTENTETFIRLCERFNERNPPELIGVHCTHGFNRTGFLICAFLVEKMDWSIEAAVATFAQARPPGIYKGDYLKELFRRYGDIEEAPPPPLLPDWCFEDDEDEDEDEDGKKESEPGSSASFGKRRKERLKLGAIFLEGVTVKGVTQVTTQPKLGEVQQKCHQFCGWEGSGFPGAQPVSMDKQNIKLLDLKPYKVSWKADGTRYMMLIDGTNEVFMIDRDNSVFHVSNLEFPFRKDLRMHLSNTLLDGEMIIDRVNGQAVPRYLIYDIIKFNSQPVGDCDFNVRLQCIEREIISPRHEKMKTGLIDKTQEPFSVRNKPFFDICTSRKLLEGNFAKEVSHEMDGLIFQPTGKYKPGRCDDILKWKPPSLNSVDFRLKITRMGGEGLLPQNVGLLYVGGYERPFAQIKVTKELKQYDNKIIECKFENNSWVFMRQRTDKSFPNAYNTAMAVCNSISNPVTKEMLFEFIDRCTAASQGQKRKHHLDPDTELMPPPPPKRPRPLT
UniProt O60921: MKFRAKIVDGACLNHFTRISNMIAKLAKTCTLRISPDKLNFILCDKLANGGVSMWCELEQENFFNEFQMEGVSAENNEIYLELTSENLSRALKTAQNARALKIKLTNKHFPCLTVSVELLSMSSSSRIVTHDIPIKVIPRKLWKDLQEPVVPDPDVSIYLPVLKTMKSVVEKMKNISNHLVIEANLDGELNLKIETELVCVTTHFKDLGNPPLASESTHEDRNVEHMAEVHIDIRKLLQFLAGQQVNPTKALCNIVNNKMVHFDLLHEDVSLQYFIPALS
UniProt O75643, whole entry: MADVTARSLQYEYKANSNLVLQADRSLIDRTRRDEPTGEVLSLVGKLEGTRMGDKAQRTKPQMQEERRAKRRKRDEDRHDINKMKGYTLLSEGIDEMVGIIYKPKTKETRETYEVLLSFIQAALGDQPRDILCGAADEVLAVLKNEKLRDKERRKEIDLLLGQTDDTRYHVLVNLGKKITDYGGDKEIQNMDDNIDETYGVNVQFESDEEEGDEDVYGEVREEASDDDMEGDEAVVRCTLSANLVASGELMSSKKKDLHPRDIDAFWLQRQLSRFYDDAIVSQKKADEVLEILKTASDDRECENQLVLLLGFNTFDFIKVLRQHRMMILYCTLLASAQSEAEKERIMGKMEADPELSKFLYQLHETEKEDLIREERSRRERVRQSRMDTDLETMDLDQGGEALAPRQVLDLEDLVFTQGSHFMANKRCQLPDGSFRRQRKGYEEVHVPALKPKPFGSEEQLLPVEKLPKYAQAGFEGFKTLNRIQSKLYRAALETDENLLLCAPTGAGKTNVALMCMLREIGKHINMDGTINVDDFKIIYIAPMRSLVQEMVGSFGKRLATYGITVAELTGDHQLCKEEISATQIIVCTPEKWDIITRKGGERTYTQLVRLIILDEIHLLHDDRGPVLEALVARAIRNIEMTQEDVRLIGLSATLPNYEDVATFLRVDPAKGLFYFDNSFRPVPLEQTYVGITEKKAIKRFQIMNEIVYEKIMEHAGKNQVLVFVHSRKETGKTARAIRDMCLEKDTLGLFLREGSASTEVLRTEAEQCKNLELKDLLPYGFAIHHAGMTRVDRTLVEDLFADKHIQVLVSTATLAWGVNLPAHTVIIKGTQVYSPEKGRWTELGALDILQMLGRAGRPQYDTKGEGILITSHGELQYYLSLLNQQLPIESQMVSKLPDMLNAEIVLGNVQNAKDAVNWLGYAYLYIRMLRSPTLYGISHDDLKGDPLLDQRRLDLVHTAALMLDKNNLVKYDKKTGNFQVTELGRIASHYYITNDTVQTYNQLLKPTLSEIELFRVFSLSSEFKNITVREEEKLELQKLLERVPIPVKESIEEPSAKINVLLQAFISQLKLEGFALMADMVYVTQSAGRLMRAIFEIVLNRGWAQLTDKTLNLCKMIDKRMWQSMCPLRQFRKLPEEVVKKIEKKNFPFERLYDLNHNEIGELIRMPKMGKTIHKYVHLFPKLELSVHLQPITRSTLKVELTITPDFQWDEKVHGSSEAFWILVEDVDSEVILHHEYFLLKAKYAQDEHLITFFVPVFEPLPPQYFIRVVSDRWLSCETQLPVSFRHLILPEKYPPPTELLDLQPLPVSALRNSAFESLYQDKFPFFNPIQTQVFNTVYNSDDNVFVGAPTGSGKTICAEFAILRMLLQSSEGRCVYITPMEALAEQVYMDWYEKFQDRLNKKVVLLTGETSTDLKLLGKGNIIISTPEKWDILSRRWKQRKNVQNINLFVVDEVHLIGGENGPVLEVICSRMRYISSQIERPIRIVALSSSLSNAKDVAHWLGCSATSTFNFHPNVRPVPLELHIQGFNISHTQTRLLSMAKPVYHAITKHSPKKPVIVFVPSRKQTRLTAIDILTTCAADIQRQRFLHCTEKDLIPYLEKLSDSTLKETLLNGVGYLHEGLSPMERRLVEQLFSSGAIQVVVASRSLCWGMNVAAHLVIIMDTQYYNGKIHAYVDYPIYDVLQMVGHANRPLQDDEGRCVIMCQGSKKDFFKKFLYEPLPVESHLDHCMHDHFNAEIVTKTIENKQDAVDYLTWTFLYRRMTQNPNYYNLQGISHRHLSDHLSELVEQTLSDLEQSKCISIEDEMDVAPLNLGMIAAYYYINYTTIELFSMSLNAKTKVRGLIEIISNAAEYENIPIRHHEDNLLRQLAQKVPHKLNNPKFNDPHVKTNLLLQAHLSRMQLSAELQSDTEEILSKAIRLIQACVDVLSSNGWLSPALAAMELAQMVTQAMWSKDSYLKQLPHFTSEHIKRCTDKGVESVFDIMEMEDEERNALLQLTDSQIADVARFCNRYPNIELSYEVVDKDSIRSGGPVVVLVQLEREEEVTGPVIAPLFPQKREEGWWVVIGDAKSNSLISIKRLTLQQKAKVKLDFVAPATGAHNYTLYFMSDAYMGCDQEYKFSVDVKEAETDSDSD

Compound: Nc1ncnc2c1ncn2[C@@H]1O[C@H](COP(=O)(O)OP(=O)(O)OP(=O)(O)O)[C@@H](O)[C@H]1O [adenosine triphosphate]
Assay: NP40-soluble protein abundance relative to vehicle (solubility fold change) (ratio); higher = more soluble protein in presence of ATP
In short: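 Crude Jurkat lysate, prepared by Dounce homogenisation, was exposed to eight concentrations from 0.1 to 10 mM for 10 min at room temperature and then 3 min at 37 °C. Solubilisation used 0.8% NP40 with benzonase for 60 min at 4 °C, followed by ultracentrifugation and TMT labelling of the supernatant for LC-MS/MS. After vsn normalisation of intensities, each value is the fold change against the detergent-processed vehicle within each replicate, across three independent experiments.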

| Target | NP40-soluble protein abundance (concentration: 0.1mM) | NP40-soluble protein abundance (concentration: 0.5mM) |
| --- | --- | --- |
| UniProt O76021 and related entries | 1.02 ± 0.039 | 1.11 ± 0.12 |
| DENND4B (UniProt O75064) | 0.987 ± 0.039 | 1.03 ± 0.068 |
| UniProt O95236 and related entries | 0.932 ± 0.023 | 0.907 ± 0.06 |
| ZBED4 (UniProt O75132) | 0.989 ± 0.05 | 1.02 ± 0.049 |
| TOM1 (UniProt O60784) | 0.936 ± 0.054 | 0.897 ± 0.032 |
| UniProt O75494 and related entries | 1.03 ± 0.02 | 1.19 ± 0.043 |
| UniProt O75608 and related entries | 0.933 ± 0.03 | 0.897 ± 0.09 |
| SMC2 (UniProt O95347) | 1 ± 0.03 | 1.03 ± 0.067 |
| UniProt O94826 | 0.987 ± 0.037 | 1 ± 0.038 |
| MYO1D (UniProt O94832) | 1.09 ± 0.017 | 1.19 ± 0.095 |
| AP1G2 (UniProt O75843) | 1.07 ± 0.058 | 1.01 ± 0.061 |
| UniProt O95613 and related entries | 1.01 ± 0.11 | 1.04 ± 0.037 |
| UniProt O60861 | 1.01 ± 0.041 | 1.04 ± 0.066 |
| KIN (UniProt O60870) | 1.05 ± 0.032 | 1.06 ± 0.08 |
| VPS26A (UniProt O75436) | 1.08 ± 0.11 | 1.06 ± 0.13 |
| CBR3 (UniProt O75828) | 1.03 ± 0.035 | 0.989 ± 0.032 |
| RNGTT (UniProt O60942) | 1.05 ± 0.029 | 1.06 ± 0.051 |
| FAM20B (UniProt O75063) | 1.06 ± 0.039 | 0.988 ± 0.029 |
| CDS2 (UniProt O95674) | 0.984 ± 0.083 | 0.948 ± 0.079 |
| HUS1 (UniProt O60921) | 1.01 ± 0.066 | 1.04 ± 0.061 |
| UniProt O94985-2 | 0.991 ± 0.054 | 0.953 ± 0.05 |
| IPO7 (UniProt O95373) | 0.928 ± 0.015 | 0.912 ± 0.065 |
| ZFAND5 (UniProt O76080) | 0.833 ± 0.091 | 0.848 ± 0.099 |
| IPO13 (UniProt O94829) | 1.02 ± 0.17 | 0.953 ± 0.11 |
| UniProt O60566 and related entries | 1.02 ± 0.021 | 1.01 ± 0.054 |
| KIF4A (UniProt O95239) | 1.02 ± 0.019 | 1.03 ± 0.035 |
| KPNA6 (UniProt O60684) | 1.045 ± 0.0079 | 1.05 ± 0.027 |
| UniProt O75323 | 1.03 ± 0.057 | 1.03 ± 0.044 |
| SNRNP200 (UniProt O75643) | 1.04 ± 0.041 | 1.07 ± 0.029 |
| PHF2 (UniProt O75151) | 1.01 ± 0.11 | 1.02 ± 0.047 |

Part of the list above, with bars between the fields.
Target | NP40-soluble protein abundance (concentration: 0.1mM) | NP40-soluble protein abundance (concentration: 0.5mM)
CBR3 (UniProt O75828) | 1.03 ± 0.035 | 0.989 ± 0.032
RNGTT (UniProt O60942) | 1.05 ± 0.029 | 1.06 ± 0.051
